PubChem BioAssay AID1224830, NIAID – 2016
Screen: 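Genes whose knock-down alters the TNF-alpha reporter response to LPS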 (primary screen). Cell system: human THP-1 monocytic leukaemia cells, TNF dual-luciferase reporter clone, PMA-differentiated to macrophage-like cells. Reagents: siRNA pool against human genes, 50 nM. Duration: LPS for 4 h, given about 3 days after siRNA transfection. Treatment: bacterial LPS (TLR4 ligand), 10 ng/ml. Read-out: 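TNF firefly reporter luminescence divided by renilla, normalised to the plate median, then turned into a robust z-score for each replicate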. Scale: TNF reporter robust z-score: higher = stronger TNF reporter response to LPS. Hit rule: 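Each well counts as active if its z-score is over 2.8 or under -1.5; controls are left without a call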.
This is a random part of about 18,000 deposited reagents. About 2,900 of them (16%) count as active. 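Calls are made per well; low scores hint the gene aids the LPS response, high scores that it dampens it.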 Entries without a mark were called inactive. Repeated entries: four replicate wells of each siRNA pool.

target gene	TNF reporter robust z-score
MAPT (microtubule associated protein tau)	0.42
MAPT (microtubule associated protein tau)	0.49
MAPT (microtubule associated protein tau)	1.38
MAPT (microtubule associated protein tau)	-0.28
LIG4 (DNA ligase 4)	-0.64
LIG4 (DNA ligase 4)	-0.38
LIG4 (DNA ligase 4)	-0.37
LIG4 (DNA ligase 4)	0.39
GDF2 (growth differentiation factor 2)	0.09
GDF2 (growth differentiation factor 2)	-0.12
GDF2 (growth differentiation factor 2)	-0.59
GDF2 (growth differentiation factor 2)	0.07
TAC1 (tachykinin precursor 1)	0.57
TAC1 (tachykinin precursor 1)	-0.03
TAC1 (tachykinin precursor 1)	0.41
TAC1 (tachykinin precursor 1)	-0.11
GPR143 (G protein-coupled receptor 143)	-0.39
GPR143 (G protein-coupled receptor 143)	-0.26
GPR143 (G protein-coupled receptor 143)	0.9
GPR143 (G protein-coupled receptor 143)	0.1
FKBP4 (FKBP prolyl isomerase 4)	0.09
FKBP4 (FKBP prolyl isomerase 4)	-0.18
FKBP4 (FKBP prolyl isomerase 4)	-0.01
FKBP4 (FKBP prolyl isomerase 4)	-0.08
UROD (uroporphyrinogen decarboxylase)	-0.92
UROD (uroporphyrinogen decarboxylase)	-0.62
UROD (uroporphyrinogen decarboxylase)	-1.17
UROD (uroporphyrinogen decarboxylase)	-0.99
TFAP4 (transcription factor AP-4)	-0.7
TFAP4 (transcription factor AP-4)	0.71
TFAP4 (transcription factor AP-4)	-1.03
TFAP4 (transcription factor AP-4)	2.02
FAM216A (family with sequence similarity 216 member A)	0.15
FAM216A (family with sequence similarity 216 member A)	-1.19
FAM216A (family with sequence similarity 216 member A)	-0.89
FAM216A (family with sequence similarity 216 member A)	-0.42
MGP (matrix Gla protein)	1.46
MGP (matrix Gla protein)	2.05
MGP (matrix Gla protein)	-0.28
MGP (matrix Gla protein)	0.27
POC1B (POC1 centriolar protein B)	-0.15
POC1B (POC1 centriolar protein B)	-0.87
POC1B (POC1 centriolar protein B)	-0.86
POC1B (POC1 centriolar protein B)	-0.19
ASB4 (ankyrin repeat and SOCS box containing 4)	-0.59
ASB4 (ankyrin repeat and SOCS box containing 4)	-1.09
ASB4 (ankyrin repeat and SOCS box containing 4)	-0.16
ASB4 (ankyrin repeat and SOCS box containing 4)	-0.54
OARD1 (O-acyl-ADP-ribose deacylase 1)	0.74
OARD1 (O-acyl-ADP-ribose deacylase 1)	1.42
OARD1 (O-acyl-ADP-ribose deacylase 1)	-0.96
OARD1 (O-acyl-ADP-ribose deacylase 1)	0.04
KCTD13 (potassium channel tetramerization domain containing 13)	-1.42
KCTD13 (potassium channel tetramerization domain containing 13)	1.09
KCTD13 (potassium channel tetramerization domain containing 13)	1.7
KCTD13 (potassium channel tetramerization domain containing 13)	2.15
GAD1 (glutamate decarboxylase 1)	0.33
GAD1 (glutamate decarboxylase 1)	1.36
GAD1 (glutamate decarboxylase 1)	0.3
GAD1 (glutamate decarboxylase 1)	1.35
EFHC1 (EF-hand domain containing 1)	-0.81
EFHC1 (EF-hand domain containing 1)	-1.1
EFHC1 (EF-hand domain containing 1)	-1.02
EFHC1 (EF-hand domain containing 1)	-0.08
SLC5A5	-1.16
SLC5A5	-1.12
SLC5A5	-0.91

8 of these entries, set out differently:
GPR143 (G protein-coupled receptor 143)
- TNF reporter robust z-score: -0.39

GPR143 (G protein-coupled receptor 143)
- TNF reporter robust z-score: -0.26

GPR143 (G protein-coupled receptor 143)
- TNF reporter robust z-score: 0.9

GPR143 (G protein-coupled receptor 143)
- TNF reporter robust z-score: 0.1

FKBP4 (FKBP prolyl isomerase 4)
- TNF reporter robust z-score: 0.09

FKBP4 (FKBP prolyl isomerase 4)
- TNF reporter robust z-score: -0.18

FKBP4 (FKBP prolyl isomerase 4)
- TNF reporter robust z-score: -0.01

FKBP4 (FKBP prolyl isomerase 4)
- TNF reporter robust z-score: -0.08

Next results follow.
target gene	TNF reporter robust z-score
AMTN (amelotin)	1.45
AMTN (amelotin)	0.13
AMTN (amelotin)	0.97
AMTN (amelotin)	1.01
ZBTB35 (zinc finger and BTB domain containing 35)	-0.84
ZBTB35 (zinc finger and BTB domain containing 35)	0.61
ZBTB35 (zinc finger and BTB domain containing 35)	-0.2
ZBTB35 (zinc finger and BTB domain containing 35)	0.27
CD1A (CD1a molecule)	-0.63
CD1A (CD1a molecule)	-0.59
CD1A (CD1a molecule)	-1.26
CD1A (CD1a molecule)	0.47
CAMSAP2	-1.25
CAMSAP2	-1.69 (active)
CAMSAP2	-0.89
CAMSAP2	-1.08
ZNF619 (zinc finger protein 619)	-0.98
ZNF619 (zinc finger protein 619)	-0.58
ZNF619 (zinc finger protein 619)	-0.33
ZNF619 (zinc finger protein 619)	0.29
ATL1 (atlastin GTPase 1)	1.6
ATL1 (atlastin GTPase 1)	-0.03
ATL1 (atlastin GTPase 1)	-0.34
ATL1 (atlastin GTPase 1)	-0.17
PKP2 (plakophilin 2)	-0.32
PKP2 (plakophilin 2)	-0.36
PKP2 (plakophilin 2)	-0.48
PKP2 (plakophilin 2)	-0.5
COLQ	0.67
COLQ	0.89
COLQ	-0.58
COLQ	1.64
CRK (CRK proto-oncogene, adaptor protein)	2.34
CRK (CRK proto-oncogene, adaptor protein)	0.8
CRK (CRK proto-oncogene, adaptor protein)	1.72
CRK (CRK proto-oncogene, adaptor protein)	-0.21
PCNX2 (pecanex 2)	-0.47
PCNX2 (pecanex 2)	-0.36
PCNX2 (pecanex 2)	-0.21
PCNX2 (pecanex 2)	0
ADPRH (ADP-ribosylarginine hydrolase)	-1.1
ADPRH (ADP-ribosylarginine hydrolase)	-1.24
ADPRH (ADP-ribosylarginine hydrolase)	-1.19
ADPRH (ADP-ribosylarginine hydrolase)	-0.72
